Data as given in paper doi:10.1101/2021.11.19.469240.
Like-named read-outs stand apart in the source and are kept apart here. These are yes or no findings as the source states them, for the method shown. In cells and extracts the contact can be indirect. Some entries that bind do so weakly or less than the wild type.

Chains of the proteins cited; added tags and fusions are not shown. Residues count along the entry.
UniProt P31422, residues 23-879: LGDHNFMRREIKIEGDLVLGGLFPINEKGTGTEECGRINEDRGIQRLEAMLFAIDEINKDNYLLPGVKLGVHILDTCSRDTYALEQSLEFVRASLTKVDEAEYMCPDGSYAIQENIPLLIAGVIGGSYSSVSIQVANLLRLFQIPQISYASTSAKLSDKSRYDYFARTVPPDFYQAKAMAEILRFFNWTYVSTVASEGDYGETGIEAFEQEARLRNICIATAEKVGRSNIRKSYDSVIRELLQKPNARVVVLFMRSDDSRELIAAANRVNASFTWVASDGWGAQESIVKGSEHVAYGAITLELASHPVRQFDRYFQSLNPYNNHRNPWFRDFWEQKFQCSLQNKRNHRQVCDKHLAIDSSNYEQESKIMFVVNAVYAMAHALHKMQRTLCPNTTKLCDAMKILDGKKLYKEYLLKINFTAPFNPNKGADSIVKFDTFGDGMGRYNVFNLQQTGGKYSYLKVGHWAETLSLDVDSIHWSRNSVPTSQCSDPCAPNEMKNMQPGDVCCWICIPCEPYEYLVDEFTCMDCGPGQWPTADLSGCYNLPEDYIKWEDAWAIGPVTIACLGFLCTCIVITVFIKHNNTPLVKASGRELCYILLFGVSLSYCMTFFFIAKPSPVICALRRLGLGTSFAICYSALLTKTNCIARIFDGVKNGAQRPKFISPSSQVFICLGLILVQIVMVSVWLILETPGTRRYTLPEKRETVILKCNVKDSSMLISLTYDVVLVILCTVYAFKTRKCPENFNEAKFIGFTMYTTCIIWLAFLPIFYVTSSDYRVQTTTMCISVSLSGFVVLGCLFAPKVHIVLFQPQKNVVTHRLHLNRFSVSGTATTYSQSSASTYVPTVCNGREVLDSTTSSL
UniProt P31421, residues 19-872: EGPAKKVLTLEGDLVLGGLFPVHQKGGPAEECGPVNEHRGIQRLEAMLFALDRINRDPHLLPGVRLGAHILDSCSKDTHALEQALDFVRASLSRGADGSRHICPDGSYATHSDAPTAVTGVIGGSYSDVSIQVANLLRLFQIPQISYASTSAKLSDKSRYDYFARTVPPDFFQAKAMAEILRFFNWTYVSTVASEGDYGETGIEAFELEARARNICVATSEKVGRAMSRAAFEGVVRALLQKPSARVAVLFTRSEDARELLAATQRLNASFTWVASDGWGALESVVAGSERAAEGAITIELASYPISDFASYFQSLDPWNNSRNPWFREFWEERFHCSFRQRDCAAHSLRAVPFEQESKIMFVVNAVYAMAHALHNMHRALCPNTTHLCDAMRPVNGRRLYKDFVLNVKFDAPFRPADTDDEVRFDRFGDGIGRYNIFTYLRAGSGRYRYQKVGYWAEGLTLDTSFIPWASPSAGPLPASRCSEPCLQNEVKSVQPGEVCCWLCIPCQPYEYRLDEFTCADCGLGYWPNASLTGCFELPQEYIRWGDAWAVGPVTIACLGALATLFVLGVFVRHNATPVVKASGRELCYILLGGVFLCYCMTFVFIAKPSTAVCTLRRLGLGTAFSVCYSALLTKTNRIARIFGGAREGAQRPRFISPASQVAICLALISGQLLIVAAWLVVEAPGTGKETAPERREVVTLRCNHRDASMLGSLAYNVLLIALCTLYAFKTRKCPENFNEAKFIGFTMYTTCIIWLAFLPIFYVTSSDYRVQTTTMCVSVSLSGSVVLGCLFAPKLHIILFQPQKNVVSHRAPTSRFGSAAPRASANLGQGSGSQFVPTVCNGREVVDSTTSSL
UniProt P35400, residues 35-915: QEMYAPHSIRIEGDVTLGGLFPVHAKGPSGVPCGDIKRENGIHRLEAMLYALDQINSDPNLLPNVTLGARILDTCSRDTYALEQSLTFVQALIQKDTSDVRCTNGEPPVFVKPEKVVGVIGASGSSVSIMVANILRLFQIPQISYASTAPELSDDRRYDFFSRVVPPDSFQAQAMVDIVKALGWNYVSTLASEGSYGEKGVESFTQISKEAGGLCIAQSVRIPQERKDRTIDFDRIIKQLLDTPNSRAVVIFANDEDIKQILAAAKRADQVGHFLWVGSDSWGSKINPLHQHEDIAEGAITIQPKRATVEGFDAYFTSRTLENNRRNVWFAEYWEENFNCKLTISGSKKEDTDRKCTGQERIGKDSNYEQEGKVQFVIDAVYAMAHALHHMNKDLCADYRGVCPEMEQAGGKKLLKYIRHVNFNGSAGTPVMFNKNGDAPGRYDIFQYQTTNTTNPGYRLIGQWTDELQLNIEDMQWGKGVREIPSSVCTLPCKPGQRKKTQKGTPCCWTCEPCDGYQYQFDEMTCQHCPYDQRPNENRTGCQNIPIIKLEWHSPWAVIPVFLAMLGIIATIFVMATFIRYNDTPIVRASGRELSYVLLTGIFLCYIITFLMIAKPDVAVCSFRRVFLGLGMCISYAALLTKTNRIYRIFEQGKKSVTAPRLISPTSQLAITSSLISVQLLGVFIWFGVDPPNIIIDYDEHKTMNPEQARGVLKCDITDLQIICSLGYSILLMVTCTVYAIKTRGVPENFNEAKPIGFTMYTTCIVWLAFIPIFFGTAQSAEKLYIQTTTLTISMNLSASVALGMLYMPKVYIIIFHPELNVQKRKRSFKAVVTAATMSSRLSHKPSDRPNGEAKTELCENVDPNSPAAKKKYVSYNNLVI
UniProt Q9EP80: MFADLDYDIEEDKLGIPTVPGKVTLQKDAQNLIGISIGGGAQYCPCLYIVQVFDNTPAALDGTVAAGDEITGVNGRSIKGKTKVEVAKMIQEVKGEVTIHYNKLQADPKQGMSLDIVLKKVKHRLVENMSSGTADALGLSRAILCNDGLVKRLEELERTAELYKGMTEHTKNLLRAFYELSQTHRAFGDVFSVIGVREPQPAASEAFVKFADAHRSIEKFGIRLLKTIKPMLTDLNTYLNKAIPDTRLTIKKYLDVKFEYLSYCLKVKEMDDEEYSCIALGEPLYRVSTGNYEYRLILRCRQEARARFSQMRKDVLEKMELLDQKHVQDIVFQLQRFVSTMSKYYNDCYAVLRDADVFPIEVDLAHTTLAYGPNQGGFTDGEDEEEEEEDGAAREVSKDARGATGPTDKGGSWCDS
UniProt Q62083: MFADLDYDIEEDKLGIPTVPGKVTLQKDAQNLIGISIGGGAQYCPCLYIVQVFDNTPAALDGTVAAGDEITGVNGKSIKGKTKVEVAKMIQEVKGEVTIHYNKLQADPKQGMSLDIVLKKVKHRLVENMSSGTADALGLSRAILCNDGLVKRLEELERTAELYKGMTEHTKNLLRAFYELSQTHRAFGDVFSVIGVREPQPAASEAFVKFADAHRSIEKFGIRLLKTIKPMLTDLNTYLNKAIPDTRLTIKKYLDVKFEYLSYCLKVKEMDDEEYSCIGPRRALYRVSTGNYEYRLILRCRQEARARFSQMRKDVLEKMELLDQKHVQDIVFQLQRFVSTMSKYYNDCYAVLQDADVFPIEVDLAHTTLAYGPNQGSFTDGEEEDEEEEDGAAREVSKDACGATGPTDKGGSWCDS

Legend:
[1] = molecular target: HA-mGlu3 (mGlu3 receptor bearing an HA tag in the extracellular N-terminal domain) (UniProt P31422); assay: co-IP
HA-tagged mGlu2 receptor = HA-tagged mGlu2 receptor (UniProt P31421); assay: co-IP
HA-tagged mGlu7 receptor = HA-tagged mGlu7 receptor (UniProt P35400); assay: co-IP
[2] = molecular target: T1, mGlu3-SSL peptide (synthetic peptide of the C-terminal domain of the mGlu3 receptor, wild type) (mouse); assay: pull-down
T1 sequence (peptide): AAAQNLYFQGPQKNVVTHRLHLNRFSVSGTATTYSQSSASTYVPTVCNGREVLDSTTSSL

[3] = molecular target: T1, mGlu3-SSL peptide (synthetic peptide of the C-terminal domain of the mGlu3 receptor, wild type) (mouse); assay: pull-down; remark: listed apart in the source
[4] = molecular target: GFP-PICK1 (Protein Interacting with C Kinase 1, GFP-tagged) (UniProt Q9EP80); assay: co-IP
[5] = molecular target: GFP-PICK1 (Protein Interacting with C Kinase 1, GFP-tagged) (UniProt Q9EP80); assay: co-IP; remark: listed apart in the source

Row | binding [1] | binding (HA-tagged mGlu2 receptor) | binding (HA-tagged mGlu7 receptor) | binding [2] | binding [3] | binding [4] | binding [5] | Substance
1 | binds | no binding | binds | binds |  |  |  | GFP-PICK1 (Protein Interacting with C Kinase 1, GFP-tagged) (from UniProt Q9EP80 1-416)
2 |  |  |  | binds | binds |  |  | native PICK1 expressed in mouse brain (from UniProt Q62083 1-416)
3 |  |  |  |  |  | binds | binds | HA-mGlu3 (mGlu3 receptor bearing an HA tag in the extracellular N-terminal domain) (from UniProt P31422 23-879)
